The source of these data is article PMC11109380.

By UniProt entry, the sequences of proteins in these tests, tags left out. Where a name states a change or a piece, a line headed by the entry shows the natural chain unless it says otherwise. Chains listed by the source or under a name are the forms on record and can include a tag or linker. Residues count along the entry.
UniProt P07766: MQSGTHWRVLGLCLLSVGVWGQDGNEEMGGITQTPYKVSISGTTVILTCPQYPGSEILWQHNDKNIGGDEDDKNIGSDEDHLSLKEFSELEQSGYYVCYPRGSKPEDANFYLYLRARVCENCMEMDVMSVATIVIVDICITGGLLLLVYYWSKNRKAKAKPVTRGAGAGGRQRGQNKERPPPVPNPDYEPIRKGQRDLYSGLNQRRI
human CD3ε WT-FLAG expressed in JK εKO cells: residues 23-207 of P07766
human CD3ε cytoplasmic tail fused to GST, WT: residues 153-207 of P07766
UniProt P06239: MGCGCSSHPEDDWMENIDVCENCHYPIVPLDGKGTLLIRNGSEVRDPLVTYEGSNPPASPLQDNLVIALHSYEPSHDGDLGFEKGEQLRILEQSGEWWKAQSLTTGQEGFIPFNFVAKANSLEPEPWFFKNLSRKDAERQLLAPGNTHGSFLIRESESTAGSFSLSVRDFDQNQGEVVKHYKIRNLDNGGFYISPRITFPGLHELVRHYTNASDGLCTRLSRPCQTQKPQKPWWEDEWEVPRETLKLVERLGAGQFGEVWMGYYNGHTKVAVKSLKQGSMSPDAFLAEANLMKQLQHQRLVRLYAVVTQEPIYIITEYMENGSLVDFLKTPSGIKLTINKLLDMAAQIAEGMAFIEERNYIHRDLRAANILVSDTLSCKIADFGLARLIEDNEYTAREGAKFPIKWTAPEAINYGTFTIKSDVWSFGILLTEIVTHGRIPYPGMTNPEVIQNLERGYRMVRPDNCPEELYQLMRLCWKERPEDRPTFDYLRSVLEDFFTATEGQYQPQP

For assay [1], the target named is human CD3ε WT-FLAG expressed in JK εKO cells (human) (UniProt P07766). Description: proximity ligation; in situ PLA (Duolink) with goat anti-CD3ε and mouse anti-LCK in JK εKO cells expressing hCD3ε variants; unstimulated or stimulated with 5 μg/ml anti-CD3ε (OKT3) for 5 min at 37°C; dots per cell normalised to the stimulated WT.
Assay [2] addresses human CD3ε cytoplasmic tail fused to GST, WT (human) (UniProt P07766). Kind of assay: pull-down; GST-CD3ε cytoplasmic tail variants on glutathione sepharose beads, incubated with Jurkat T cell lysate (lysis buffer with 0.3% Brij96V, 20 mM Tris-HCl pH 8, 137 mM NaCl) overnight at 4°C; immunoblot, signals normalised to GST; only the target purified. On the technique in general: In western blotting, separated proteins are transferred to a membrane and probed.

These are yes or no findings as the source states them, for the method shown. In cells and extracts the contact can be indirect. Some results given as binding are weak or reduced against the parent protein; the word gives no strength.

For the substance “Src family kinase LCK (from UniProt P06239 1-509) (enzyme)”, the binding result in assay [1] and in assay [2] was “binds” each time.
